The list shows a part of the results. The main result of the screen is listed elsewhere. These columns were measured beside it and carry no call. The list favours compounds with an active or inconclusive main result. Words in brackets tell the shape of the fitted curve; partial curves, single points and poor fits give uncertain potencies.
Test: qHTS Assay for Lipid Storage Modulators in Drosophila S3 Cells;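 for cell number change: cells counted by Cell Tracker Red CMTPX staining in the red channel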
Settings: BODIPY lipid droplet fluorescence, 18-24 h; for cell number change: measured here: cell count max response, cells fed with added oleic acid
In short: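 Drosophila S3 cells loaded with oleic acid (400 uM, as added) and compounds at several concentrations; lipid droplets imaged by 488-nm laser-scanning cytometry, 500–530 nm intensity and object ratio to cell channel. Percent activity normalized to 20 uM Triacsin C.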

[1] = measured here: cell number channel AC50, cells fed with added oleic acid
[2] = measured here: lipid fluorescence (Fed channel) AC50, cells fed with added oleic acid

| Structure (SMILES) | AC50 [1] | AC50 [2] | cell number change [%] |
| --- | --- | --- | --- |
| CCC1CCCCN1C(=O)CN1C(=O)c2ccccc2S1(=O)=O (configuration not stated) | 2.91 µM [rising, single point] | 29.1 µM [rising, single point] |  |
| CCOC(=O)c1ccc(NS(=O)(=O)N2CCCCCC2)cc1 |  |  | -29.1 |
| O=C(NCC(c1ccco1)N1CCCC1)c1ccccc1Sc1ccc(C(F)(F)F)cc1[N+](=O)[O-] (configuration not stated) | 10.3 µM [rising, partial curve] |  | 83.5 |
| CC(=O)c1ccc(S(=O)(=O)Nc2ccc(-c3ccc4nnc(C)n4n3)cc2)cc1 | 0.82 µM [falling, single point] |  | -3.74 |
| CCCCNS(=O)(=O)c1ccc(NC(=O)C2c3ccccc3Oc3ccccc32)cc1 |  | 16.4 µM [falling, single point] | -17.5 |
| Cc1ccc(S(=O)(=O)NCC(=O)OC(C)C(=O)NC(=O)NC2CCCCC2)cc1C (configuration not stated) | 4.11 µM [rising, partial curve] | 29.1 µM [falling, single point] | -1.46 |
| COc1ccc(NC(=O)C2CCCN2S(=O)(=O)c2ccc(C)cc2)cc1 (configuration not stated) |  |  | 22.2 |
| Oc1cccc(C=Nc2cccc3ccccc23)c1O | 6.51 µM [falling, single point] |  | -37 |
| CCOC(=O)c1sc(NC(=O)c2ccoc2C)c(C(N)=O)c1C |  | 6.51 µM [falling, partial curve] |  |
| Cc1cc(N2CCN(C)CC2)nc2ccc(NC(=O)CCC(=O)NCCc3ccc(Cl)cc3)cc12 |  |  | 1.39 |
| COC(=O)c1cc(Br)c(=O)n(CCN2CCOCC2)c1 | 0.58 µM [falling, full curve] |  |  |
| O=C(CCCc1nc2ccccc2s1)NNC(=O)CCN1CCN(Cc2ccccc2)CC1 |  |  | 71.9 |
| Cc1ccc(Nc2c(-c3ccccn3)nc3cc(C)ccn23)cc1 | 29.1 µM [falling, single point] | 18.4 µM [falling, single point] | -72.4 |
| COc1ccc(CCNC(=O)CSc2cn(Cc3cccc(C)c3)c3ccccc23)cc1OC | 16.4 µM [falling, single point] | 20.6 µM [falling, partial curve] | -41.5 |
| COC(=O)c1c(NC(=O)CC2SC(N)=NC2=O)sc(C)c1C (configuration not stated) | 25.9 µM [rising, partial curve, poor fit] |  | 49.5 |
| CC1CCC(NC(=O)CN2C(=O)NC(C)(C)C2=O)CC1 (configuration not stated) |  | 4.11 µM [falling, single point] | -21.5 |
| COc1cccc(NC(=S)NN=C2CCC(C(C)(C)C)CC2)c1 (configuration not stated) | 20.6 µM [rising, partial curve, poor fit] | 4.61 µM [rising, single point] | 71.2 |

Full records, quoted from the list:
CCCCNS(=O)(=O)c1ccc(NC(=O)C2c3ccccc3Oc3ccccc32)cc1 as listed: AC50 [2]: 16.4 µM [falling, single point]; cell number change [%]: -17.5
Oc1cccc(C=Nc2cccc3ccccc23)c1O as listed: AC50 [1]: 6.51 µM [falling, single point]; cell number change [%]: -37

Source: PubChem BioAssay AID2685 (National Center for Advancing Translational Sciences (NCATS), 2010)
